{"source": "paper PMC11374718", "about": "“Unlocking opioid neuropeptide dynamics with genetically encoded biosensors” (Nature Neuroscience, 2024)", "conditions": "dStr slices; n = 7 slices from 4 mice; κLight1.2a readout", "note": "Values joined by “and” are separate entries in the source; they are usually repeats but may differ in a detail not shown here. Equal values may be shown once."}
{"smiles": "CC[C@H](C)[C@H](NC(=O)[C@H](CCCNC(=N)N)NC(=O)[C@H](CCCNC(=N)N)NC(=O)[C@H](CC(C)C)NC(=O)[C@H](Cc1ccccc1)NC(=O)CNC(=O)CNC(=O)[C@@H](N)Cc1ccc(O)cc1)C(=O)O", "note": "[DynA8, dynorphin A1-8]", "values": [{"measurement": "apparent (effective) diffusion coefficient D*", "result": "1.4 ± 0.4 μm^2 s^−1 and 1.4 μm^2 s^−1"}]}
